Like-named read-outs stand apart in the source and are kept apart here. No constants are given. Whether binding was seen depends on the method and setting. In cells and extracts the contact can be indirect. Some results given as binding are weak or reduced against the parent protein; the word gives no strength. Blank lines part the entries; values can stand above or below the molecule they belong to.
Key:
[1] = molecular target: glycogen synthase kinase 3 beta (endogenous in HeLa cells) (human (endogenous in HeLa)) (UniProt P49841); assay: co-IP; immunoprecipitation from HeLa lysate, with and without overexpression of PIWIL2 (Figure 3H)
[2] = molecular target: glycogen synthase kinase 3 beta (mouse) (mouse (endogenous in GC-1 and GC-2)) (UniProt Q9WV60); assay: co-IP; immunoprecipitation from lysates of GC-1 and GC-2 cells, control and stable Piwil2 knock-down; anti-GSK3β for GSK3β with BMAL1/CLOCK
[3] = molecular target: BMAL1 (endogenous in HeLa cells) (human (endogenous in HeLa)) (UniProt O00327); assay: co-IP; immunoprecipitation from HeLa lysate, endogenous proteins; 0.8 μg antibody 2 h at 4°C, protein G&A agarose overnight, four washes in ice-cold PBS pH 7.4
[4] = molecular target: T1, CLOCK (endogenous in HeLa cells) (human (endogenous in HeLa)) (UniProt O15516); assay: as above
T1 sequence: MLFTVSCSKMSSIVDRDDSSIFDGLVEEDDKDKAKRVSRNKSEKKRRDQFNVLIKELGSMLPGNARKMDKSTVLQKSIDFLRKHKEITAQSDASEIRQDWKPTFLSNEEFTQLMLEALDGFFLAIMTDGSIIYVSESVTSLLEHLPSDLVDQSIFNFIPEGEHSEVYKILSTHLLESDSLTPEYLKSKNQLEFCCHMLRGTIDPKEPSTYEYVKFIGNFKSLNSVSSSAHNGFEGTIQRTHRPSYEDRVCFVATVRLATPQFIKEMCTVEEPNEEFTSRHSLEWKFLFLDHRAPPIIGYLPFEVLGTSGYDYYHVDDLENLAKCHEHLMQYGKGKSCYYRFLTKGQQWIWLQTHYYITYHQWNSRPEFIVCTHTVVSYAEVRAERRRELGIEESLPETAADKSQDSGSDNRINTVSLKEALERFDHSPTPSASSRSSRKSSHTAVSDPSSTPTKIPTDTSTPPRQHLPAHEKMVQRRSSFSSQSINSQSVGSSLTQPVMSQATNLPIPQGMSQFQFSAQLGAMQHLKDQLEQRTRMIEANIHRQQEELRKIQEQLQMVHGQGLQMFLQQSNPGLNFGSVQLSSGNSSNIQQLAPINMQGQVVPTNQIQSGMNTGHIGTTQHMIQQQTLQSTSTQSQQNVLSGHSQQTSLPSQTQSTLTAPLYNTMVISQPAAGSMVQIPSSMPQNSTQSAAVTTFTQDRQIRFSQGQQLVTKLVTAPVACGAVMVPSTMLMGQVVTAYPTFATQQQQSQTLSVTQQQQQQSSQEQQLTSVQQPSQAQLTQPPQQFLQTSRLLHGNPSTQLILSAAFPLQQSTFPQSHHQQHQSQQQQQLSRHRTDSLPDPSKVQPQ

Chains of the proteins cited; added tags and fusions are not shown.
UniProt P49841: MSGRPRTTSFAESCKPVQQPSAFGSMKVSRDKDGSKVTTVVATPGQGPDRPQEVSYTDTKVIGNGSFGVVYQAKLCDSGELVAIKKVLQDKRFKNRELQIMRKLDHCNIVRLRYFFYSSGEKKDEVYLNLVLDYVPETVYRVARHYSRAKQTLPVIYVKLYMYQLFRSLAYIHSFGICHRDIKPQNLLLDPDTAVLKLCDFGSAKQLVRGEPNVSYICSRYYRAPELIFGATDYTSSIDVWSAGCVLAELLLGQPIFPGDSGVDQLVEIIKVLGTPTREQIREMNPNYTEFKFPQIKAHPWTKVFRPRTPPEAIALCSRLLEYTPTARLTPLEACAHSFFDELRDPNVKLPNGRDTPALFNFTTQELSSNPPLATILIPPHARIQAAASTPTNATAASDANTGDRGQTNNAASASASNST
UniProt Q9WV60: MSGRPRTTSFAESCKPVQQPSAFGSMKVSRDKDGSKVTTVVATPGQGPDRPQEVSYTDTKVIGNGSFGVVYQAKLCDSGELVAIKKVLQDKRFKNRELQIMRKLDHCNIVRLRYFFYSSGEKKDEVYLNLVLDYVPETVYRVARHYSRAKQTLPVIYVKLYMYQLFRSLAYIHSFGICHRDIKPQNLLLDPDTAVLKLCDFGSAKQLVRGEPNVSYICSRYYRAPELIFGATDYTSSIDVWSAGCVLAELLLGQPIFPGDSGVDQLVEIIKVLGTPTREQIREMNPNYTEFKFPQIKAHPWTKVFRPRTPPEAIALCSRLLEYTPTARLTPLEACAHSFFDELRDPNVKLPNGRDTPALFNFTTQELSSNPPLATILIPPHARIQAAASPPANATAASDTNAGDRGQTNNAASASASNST
UniProt O00327: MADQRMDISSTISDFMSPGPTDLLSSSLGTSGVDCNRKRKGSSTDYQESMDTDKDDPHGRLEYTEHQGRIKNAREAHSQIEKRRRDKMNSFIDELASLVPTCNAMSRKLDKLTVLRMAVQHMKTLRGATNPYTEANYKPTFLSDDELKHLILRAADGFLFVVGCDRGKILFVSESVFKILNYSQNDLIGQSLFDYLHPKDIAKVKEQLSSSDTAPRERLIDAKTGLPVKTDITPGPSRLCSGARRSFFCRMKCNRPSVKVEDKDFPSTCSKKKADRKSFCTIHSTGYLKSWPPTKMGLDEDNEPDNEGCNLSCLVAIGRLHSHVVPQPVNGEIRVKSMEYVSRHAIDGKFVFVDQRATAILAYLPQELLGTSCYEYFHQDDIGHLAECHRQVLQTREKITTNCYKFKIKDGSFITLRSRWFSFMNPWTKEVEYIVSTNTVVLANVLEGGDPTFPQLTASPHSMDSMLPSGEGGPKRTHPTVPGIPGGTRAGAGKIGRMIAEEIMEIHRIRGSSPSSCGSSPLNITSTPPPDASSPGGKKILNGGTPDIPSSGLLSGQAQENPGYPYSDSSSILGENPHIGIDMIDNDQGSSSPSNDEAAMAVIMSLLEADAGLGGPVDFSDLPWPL
UniProt Q9WTL8: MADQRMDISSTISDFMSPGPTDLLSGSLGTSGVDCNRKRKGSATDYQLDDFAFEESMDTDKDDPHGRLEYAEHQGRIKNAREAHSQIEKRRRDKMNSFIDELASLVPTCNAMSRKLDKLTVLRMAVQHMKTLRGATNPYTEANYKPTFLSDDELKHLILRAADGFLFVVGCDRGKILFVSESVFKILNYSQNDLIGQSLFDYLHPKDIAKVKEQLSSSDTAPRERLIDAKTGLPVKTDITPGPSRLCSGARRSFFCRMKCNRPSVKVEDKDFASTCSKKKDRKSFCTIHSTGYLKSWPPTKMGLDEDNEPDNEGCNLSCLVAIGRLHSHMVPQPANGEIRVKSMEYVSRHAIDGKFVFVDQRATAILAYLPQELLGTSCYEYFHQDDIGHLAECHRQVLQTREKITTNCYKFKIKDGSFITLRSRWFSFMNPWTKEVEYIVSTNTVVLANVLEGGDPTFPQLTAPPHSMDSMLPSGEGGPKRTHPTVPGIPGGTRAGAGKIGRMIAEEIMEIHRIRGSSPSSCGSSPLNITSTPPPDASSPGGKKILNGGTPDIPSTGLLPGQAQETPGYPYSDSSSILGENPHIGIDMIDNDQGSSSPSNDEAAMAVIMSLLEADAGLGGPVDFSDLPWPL
UniProt Q8TC59: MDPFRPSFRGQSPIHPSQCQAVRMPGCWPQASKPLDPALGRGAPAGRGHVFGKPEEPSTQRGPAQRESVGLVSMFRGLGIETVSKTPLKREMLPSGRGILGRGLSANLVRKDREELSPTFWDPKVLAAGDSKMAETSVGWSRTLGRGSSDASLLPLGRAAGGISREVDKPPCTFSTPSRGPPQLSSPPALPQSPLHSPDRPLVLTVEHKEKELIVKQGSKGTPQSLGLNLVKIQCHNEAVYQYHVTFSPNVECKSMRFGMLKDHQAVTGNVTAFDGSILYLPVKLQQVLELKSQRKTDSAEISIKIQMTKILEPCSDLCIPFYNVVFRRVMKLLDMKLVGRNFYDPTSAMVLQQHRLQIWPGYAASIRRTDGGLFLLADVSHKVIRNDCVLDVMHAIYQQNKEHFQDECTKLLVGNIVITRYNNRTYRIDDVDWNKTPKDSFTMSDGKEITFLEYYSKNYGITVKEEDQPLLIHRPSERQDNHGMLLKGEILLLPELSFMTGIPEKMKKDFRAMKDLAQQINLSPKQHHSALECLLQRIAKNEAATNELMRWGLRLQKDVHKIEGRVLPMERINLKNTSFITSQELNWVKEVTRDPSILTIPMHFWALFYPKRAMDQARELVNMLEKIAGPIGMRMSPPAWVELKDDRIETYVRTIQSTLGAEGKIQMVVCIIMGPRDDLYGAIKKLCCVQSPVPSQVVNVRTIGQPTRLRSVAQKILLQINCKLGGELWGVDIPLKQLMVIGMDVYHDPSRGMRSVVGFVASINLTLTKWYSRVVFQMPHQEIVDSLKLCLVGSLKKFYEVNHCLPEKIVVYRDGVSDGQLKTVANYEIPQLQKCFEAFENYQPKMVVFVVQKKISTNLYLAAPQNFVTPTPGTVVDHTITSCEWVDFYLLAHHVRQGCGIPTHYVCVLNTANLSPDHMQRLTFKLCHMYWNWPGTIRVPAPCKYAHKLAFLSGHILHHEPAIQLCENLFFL

[5] = molecular target: glycogen synthase kinase 3 beta (mouse) (mouse (endogenous in GC-1 and GC-2)) (UniProt Q9WV60); assay: co-IP; immunoprecipitation from lysates of GC-1 and GC-2 cells, control and stable Piwil2 knock-down; anti-GSK3β for GSK3β with BMAL1/CLOCK; remark: listed apart in the source

binding [1]: binds
Molecule: BMAL1 (endogenous in HeLa cells) (from UniProt O00327 1-626)

binding [2]: binds
Molecule: BMAL1 (mouse) (from UniProt Q9WTL8 1-632)

binding [3]: binds
binding [4]: binds
Molecule: PIWIL2 (endogenous in HeLa cells) (from UniProt Q8TC59 1-973)

binding [5]: binds
B1: CLOCK (mouse) (protein, UniProt O08785 1-855)
chain: MVFTVSCSKMSSIVDRDDSSIFDGLVEEDDKDKAKRVSRNKSEKKRRDQFNVLIKELGSMLPGNARKMDKSTVLQKSIDFLRKHKETTAQSDASEIRQDWKPTFLSNEEFTQLMLEALDGFFLAIMTDGSIIYVSESVTSLLEHLPSDLVDQSIFNFIPEGEHSEVYKILSTHLLESDSLTPEYLKSKNQLEFCCHMLRGTIDPKEPSTYEYVRFIGNFKSLTSVSTSTHNGFEGTIQRTHRPSYEDRVCFVATVRLATPQFIKEMCTVEEPNEEFTSRHSLEWKFLFLDHRAPPIIGYLPFEVLGTSGYDYYHVDDLENLAKCHEHLMQYGKGKSCYYRFLTKGQQWIWLQTHYYITYHQWNSRPEFIVCTHTVVSYAEVRAERRRELGIEESLPETAADKSQDSGSDNRINTVSLKEALERFDHSPTPSASSRSSRKSSHTAVSDPSSTPTKIPTDTSTPPRQHLPAHEKMTQRRSSFSSQSINSQSVGPSLTQPAMSQAANLPIPQGMSQFQFSAQLGAMQHLKDQLEQRTRMIEANIHRQQEELRKIQEQLQMVHGQGLQMFLQQSNPGLNFGSVQLSSGNSNIQQLTPVNMQGQVVPANQVQSGHISTGQHMIQQQTLQSTSTQQSQQSVMSGHSQQTSLPSQTPSTLTAPLYNTMVISQPAAGSMVQIPSSMPQNSTQSATVTTFTQDRQIRFSQGQQLVTKLVTAPVACGAVMVPSTMLMGQVVTAYPTFATQQQQAQTLSVTQQQQQQQQQPPQQQQQQQQSSQEQQLPSVQQPAQAQLGQPPQQFLQTSRLLHGNPSTQLILSAAFPLQQSTFPPSHHQQHQPQQQQQLPRHRTDSLTDPSKVQPQ

From paper PMC5589630
